Test results taken from article PMC3071830.

The chains behind the UniProt entries cited, without tags or fusion partners. Where a name states a change or a piece, a line headed by the entry shows the natural chain unless it says otherwise.
UniProt P61961: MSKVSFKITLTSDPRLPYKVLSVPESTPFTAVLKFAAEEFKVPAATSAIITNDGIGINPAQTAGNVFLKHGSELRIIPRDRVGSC
UniProt P20029: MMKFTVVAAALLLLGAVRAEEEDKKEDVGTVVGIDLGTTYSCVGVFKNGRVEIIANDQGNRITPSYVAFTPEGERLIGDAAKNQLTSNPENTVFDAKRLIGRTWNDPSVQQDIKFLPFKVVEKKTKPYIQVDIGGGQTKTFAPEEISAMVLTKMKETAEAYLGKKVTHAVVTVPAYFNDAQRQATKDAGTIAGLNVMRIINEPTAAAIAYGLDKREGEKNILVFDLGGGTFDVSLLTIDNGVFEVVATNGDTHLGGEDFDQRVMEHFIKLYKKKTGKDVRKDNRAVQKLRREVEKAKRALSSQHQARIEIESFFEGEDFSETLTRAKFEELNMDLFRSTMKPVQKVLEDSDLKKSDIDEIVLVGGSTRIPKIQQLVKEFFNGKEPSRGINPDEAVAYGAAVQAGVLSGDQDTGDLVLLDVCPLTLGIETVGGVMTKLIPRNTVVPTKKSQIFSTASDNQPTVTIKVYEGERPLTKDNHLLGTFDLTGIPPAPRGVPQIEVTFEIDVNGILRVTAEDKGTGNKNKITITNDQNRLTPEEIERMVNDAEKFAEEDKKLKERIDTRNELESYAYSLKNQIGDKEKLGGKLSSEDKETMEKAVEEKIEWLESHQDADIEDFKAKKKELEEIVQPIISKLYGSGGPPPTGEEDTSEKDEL

Molecular target: GST-UFM1(G) (mouse UFM1 with a C-terminal ending glycine residue, N-terminal GST) (mouse) (UniProt P61961)
Experiment: pull-down; GST-UFM1(G), CDK5RAP3-GST or GST on glutathione-agarose beads; 35S-labelled in vitro translated proteins, pre-cleared on GST beads, added together with pre-cleared MIN6 lysate in ubiquitilation buffer (50 mM Tris pH 7.5, 100 mM NaCl, 0.1% NP40, 1 mM DTT, 2 mM ATP, 5 mM MgCl2), 30 min at 40°C as printed; phosphorimaging; only the target purified

binding: no binding
Substance: 35S-labelled mouse BiP, in vitro translated (from UniProt P20029 1-655)

These are yes or no findings as the source states them, for the method shown. Binding seen in cells or lysates may run through a third protein.
